Values of other authors, collected in EP1367044B1, “Calixarene-derivatives having anti-viral activity” (Aids Care Pharma Limited, priority 2002, dated 2003).
At least one compound was matched to its structure with a doubt left.

Tested on: HIV
Details: drug used on its own, patients; cited from earlier work

For `Nc1ccn([C@@H]2CS[C@H](CO)O2)c(=O)n1` [Lamivudine (3TC), Lamivudine], the “REDUCTION IN VIRAL LOAD” value is given as 50-90%.
